PubChem BioAssay AID602196 | INSERM – 2012

Assay: 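Modifiers of cisplatin sensitivity in A549 cells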
System: human A549 lung cancer cells
Reagents: siRNA pair against human genes
Time to read-out: 48 h transfection before cisplatin; time from cisplatin to read-out not stated
Treatment: cisplatin at a dose killing half of control-siRNA cells; exact dose and duration not given
Measured: 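Shift in cisplatin death relative to control siRNA, from -50 (all cells die) to +50 (no cells die); siRNAs harmful on their own scored 0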
Reading the numbers: two-siRNA summed score (-2 to +2): higher = both siRNAs protect from cisplatin killing; -2 means both sensitise; mean protection from cisplatin (shift in death): higher = protection from cisplatin killing
Rule for the call: 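Each siRNA scores 0 if harmful alone by LDH or WST-1, otherwise +1 if it reduces and -1 if it increases cisplatin killing; a gene is active when both siRNAs agree (sum +2 or -2)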
Calls: active = both siRNAs shift cisplatin killing the same way; inactive = no consistent shift, or siRNA harmful alone
The deposit covers about 23,000 reagents; this is a part drawn at random. Of all reagents, 455 (2%) got an active call. 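Active includes both protection and sensitisation; some change values fall well beyond the stated -50 to +50 range.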 A number with no mark means an inactive call. Not all columns of the deposit are shown. Not given: the amount of reagent.

{"gene knocked down": "AZI2", "two-siRNA summed score (-2 to +2)": 0, "mean protection from cisplatin (shift in death) (%)": 15.6}
{"gene knocked down": "DPEP1", "two-siRNA summed score (-2 to +2)": 1, "mean protection from cisplatin (shift in death) (%)": 10.9}
{"gene knocked down": "TCP11L2", "two-siRNA summed score (-2 to +2)": 0, "mean protection from cisplatin (shift in death) (%)": 4}
{"gene knocked down": "ZC3H4", "two-siRNA summed score (-2 to +2)": 0, "mean protection from cisplatin (shift in death) (%)": 10.2}
{"gene knocked down": "NDRG3", "two-siRNA summed score (-2 to +2)": 0, "mean protection from cisplatin (shift in death) (%)": 7.3}
{"gene knocked down": "LINC00544", "two-siRNA summed score (-2 to +2)": 1, "mean protection from cisplatin (shift in death) (%)": 14.1}
{"gene knocked down": "OR2A14", "two-siRNA summed score (-2 to +2)": 0, "mean protection from cisplatin (shift in death) (%)": 3.4}
{"gene knocked down": "CASP14", "two-siRNA summed score (-2 to +2)": -1, "mean protection from cisplatin (shift in death) (%)": -10.1}
{"gene knocked down": "MAPK4", "two-siRNA summed score (-2 to +2)": 0, "mean protection from cisplatin (shift in death) (%)": 6.9}
{"gene knocked down": "GIGYF2", "two-siRNA summed score (-2 to +2)": 0, "mean protection from cisplatin (shift in death) (%)": -0.9}
{"gene knocked down": "NPHP1", "two-siRNA summed score (-2 to +2)": 0, "mean protection from cisplatin (shift in death) (%)": 2.3}
{"gene knocked down": "DKK2", "two-siRNA summed score (-2 to +2)": -1, "mean protection from cisplatin (shift in death) (%)": -15.5}
{"gene knocked down": "DUS2", "two-siRNA summed score (-2 to +2)": 0, "mean protection from cisplatin (shift in death) (%)": 0}
{"gene knocked down": "MON1B", "two-siRNA summed score (-2 to +2)": 0, "mean protection from cisplatin (shift in death) (%)": 3.9}
{"gene knocked down": "LOC441018", "two-siRNA summed score (-2 to +2)": 1, "mean protection from cisplatin (shift in death) (%)": 8.6}
{"gene knocked down": "H4C8", "two-siRNA summed score (-2 to +2)": 0, "mean protection from cisplatin (shift in death) (%)": -10.4}
{"gene knocked down": "LOC440982", "two-siRNA summed score (-2 to +2)": 1, "mean protection from cisplatin (shift in death) (%)": 11.9}
{"gene knocked down": "LOC119358", "two-siRNA summed score (-2 to +2)": 0, "mean protection from cisplatin (shift in death) (%)": -1.5}
{"gene knocked down": "LOC440942", "two-siRNA summed score (-2 to +2)": 1, "mean protection from cisplatin (shift in death) (%)": 15}
{"gene knocked down": "BAZ2A", "two-siRNA summed score (-2 to +2)": -1, "mean protection from cisplatin (shift in death) (%)": -12.2}
{"gene knocked down": "ANXA6", "two-siRNA summed score (-2 to +2)": 0, "mean protection from cisplatin (shift in death) (%)": 3.4}
{"gene knocked down": "KCNJ11", "two-siRNA summed score (-2 to +2)": 0, "mean protection from cisplatin (shift in death) (%)": 7.7}
{"gene knocked down": "LOC391035", "two-siRNA summed score (-2 to +2)": 0, "mean protection from cisplatin (shift in death) (%)": 30.3}
{"gene knocked down": "LOC401504", "two-siRNA summed score (-2 to +2)": 0, "mean protection from cisplatin (shift in death) (%)": 15.6}
{"gene knocked down": "ZSCAN5A", "two-siRNA summed score (-2 to +2)": 0, "mean protection from cisplatin (shift in death) (%)": 3.2}
{"gene knocked down": "INPP5D", "two-siRNA summed score (-2 to +2)": 0, "mean protection from cisplatin (shift in death) (%)": 3.2}
{"gene knocked down": "MARCHF2", "two-siRNA summed score (-2 to +2)": 0, "mean protection from cisplatin (shift in death) (%)": -6.4}
{"gene knocked down": "APOOL", "two-siRNA summed score (-2 to +2)": 1, "mean protection from cisplatin (shift in death) (%)": 15.9}
{"gene knocked down": "NDOR1", "two-siRNA summed score (-2 to +2)": 0, "mean protection from cisplatin (shift in death) (%)": 16}
{"gene knocked down": "SAP30L", "two-siRNA summed score (-2 to +2)": 0, "mean protection from cisplatin (shift in death) (%)": 6.3}
{"gene knocked down": "SENP1", "two-siRNA summed score (-2 to +2)": 0, "mean protection from cisplatin (shift in death) (%)": 11.2}
{"gene knocked down": "MRPS28", "two-siRNA summed score (-2 to +2)": 0, "mean protection from cisplatin (shift in death) (%)": -10}
{"gene knocked down": "LOC442081", "two-siRNA summed score (-2 to +2)": 0, "mean protection from cisplatin (shift in death) (%)": 0.4}
{"gene knocked down": "LOC388123", "two-siRNA summed score (-2 to +2)": 0, "mean protection from cisplatin (shift in death) (%)": 2.3}
{"gene knocked down": "PAPSS2", "two-siRNA summed score (-2 to +2)": 0, "mean protection from cisplatin (shift in death) (%)": 0.2}
{"gene knocked down": "LOC442281", "two-siRNA summed score (-2 to +2)": -1, "mean protection from cisplatin (shift in death) (%)": -1.4}
{"gene knocked down": "CDK11A", "two-siRNA summed score (-2 to +2)": -1, "mean protection from cisplatin (shift in death) (%)": -14.4}
{"gene knocked down": "MAP3K12", "two-siRNA summed score (-2 to +2)": 1, "mean protection from cisplatin (shift in death) (%)": 5.7}
{"gene knocked down": "LOC440019", "two-siRNA summed score (-2 to +2)": 0, "mean protection from cisplatin (shift in death) (%)": 8.9}
{"gene knocked down": "MAP4K5", "two-siRNA summed score (-2 to +2)": 0, "mean protection from cisplatin (shift in death) (%)": 7.9}

Entries listed so far whose gene name starts with A or a:
{"gene knocked down": "AZI2", "two-siRNA summed score (-2 to +2)": 0, "mean protection from cisplatin (shift in death) (%)": 15.6}
{"gene knocked down": "ANXA6", "two-siRNA summed score (-2 to +2)": 0, "mean protection from cisplatin (shift in death) (%)": 3.4}
{"gene knocked down": "APOOL", "two-siRNA summed score (-2 to +2)": 1, "mean protection from cisplatin (shift in death) (%)": 15.9}
